For three molecules, binding results are on record in PMC8513853.

Results are given in words; binding and its absence hold for the method and conditions named. Binding seen in cells or lysates may run through a third protein. Here binding means that the protein was enriched with, or labelled near, the bait; the list need not be complete. For part of these data: Sequences can lack the tags named with a protein.

Assay in all cases: proximity labelling
For experiment [1], the target named is SARS-CoV-2 ORF6, HA-BASU fusion (SARS-CoV-2) (UniProt P0DTC6).
In experiment [2] the target is SARS-CoV-2 ORF9b, HA-BASU fusion (SARS-CoV-2), P0DTD2. To be noted: remark: other sources report otherwise.
The target of experiment [3] is T1, SARS-CoV-2 ORF6, HA-BASU fusion (SARS-CoV-2), P0DTC6.
T1 chain: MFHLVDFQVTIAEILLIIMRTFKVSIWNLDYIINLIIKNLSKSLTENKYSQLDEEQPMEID
To be noted: remark: other sources report otherwise.

B1: Rae1 (protein, UniProt P78406 1-368)
chain: MSLFGTTSGFGTSGTSMFGSATTDNHNPMKDIEVTSSPDDSIGCLSFSPPTLPGNFLIAGSWANDVRCWEVQDSGQTIPKAQQMHTGPVLDVCWSDDGSKVFTASCDKTAKMWDLSSNQAIQIAQHDAPVKTIHWIKAPNYSCVMTGSWDKTLKFWDTRSSNPMMVLQLPERCYCADVIYPMAVVATAERGLIVYQLENQPSEFRRIESPLKHQHRCVAIFKDKQNKPTGFALGSIEGRVAIHYINPPNPAKDNFTFKCHRSNGTNTSAPQDIYAVNGIAFHPVHGTLATVGSDGRFSFWDKDARTKLKTSEQLDQPISACCFNHNGNIFAYASSYDWSKGHEFYNPQKKNYIFLRNAAEELKPRNKK
For the molecule B1, the binding result in experiment [1] is “binds”.

B2: Mitochondrial Activation of Viral Signaling (MAVS), Q7Z434 1-540 (protein)
chain: MPFAEDKTYKYICRNFSNFCNVDVVEILPYLPCLTARDQDRLRATCTLSGNRDTLWHLFNTLQRRPGWVEYFIAALRGCELVDLADEVASVYQSYQPRTSDRPPDPLEPPSLPAERPGPPTPAAAHSIPYNSCREKEPSYPMPVQETQAPESPGENSEQALQTLSPRAIPRNPDGGPLESSSDLAALSPLTSSGHQEQDTELGSTHTAGATSSLTPSRGPVSPSVSFQPLARSTPRASRLPGPTGSVVSTGTSFSSSSPGLASAGAAEGKQGAESDQAEPIICSSGAEAPANSLPSKVPTTLMPVNTVALKVPANPASVSTVPSKLPTSSKPPGAVPSNALTNPAPSKLPINSTRAGMVPSKVPTSMVLTKVSASTVPTDGSSRNEETPAAPTPAGATGGSSAWLDSSSENRGLGSELSKPGVLASQVDSPFSGCFEDLAISASTSLGMGPCHGPEENEYKSEGTFGIHVAENPSIQLLEGNPGPPADPDGGPRPQADRKFQEREVPCHRPSPGALWLQVAVTGVLVVTLLVVLYRRRLH
Consider B2, for which the binding result in experiment [2] was “binds”.

B3: Nup98, P52948 1-880 (protein)
chain: MFNKSFGTPFGGGTGGFGTTSTFGQNTGFGTTSGGAFGTSAFGSSNNTGGLFGNSQTKPGGLFGTSSFSQPATSTSTGFGFGTSTGTANTLFGTASTGTSLFSSQNNAFAQNKPTGFGNFGTSTSSGGLFGTTNTTSNPFGSTSGSLFGPSSFTAAPTGTTIKFNPPTGTDTMVKAGVSTNISTKHQCITAMKEYESKSLEELRLEDYQANRKGPQNQVGAGTTTGLFGSSPATSSATGLFSSSTTNSGFAYGQNKTAFGTSTTGFGTNPGGLFGQQNQQTTSLFSKPFGQATTTQNTGFSFGNTSTIGQPSTNTMGLFGVTQASQPGGLFGTATNTSTGTAFGTGTGLFGQTNTGFGAVGSTLFGNNKLTTFGSSTTSAPSFGTTSGGLFGNKPTLTLGTNTNTSNFGFGTNTSGNSIFGSKPAPGTLGTGLGAGFGTALGAGQASLFGNNQPKIGGPLGTGAFGAPGFNTTTATLGFGAPQAPVALTDPNASAAQQAVLQQHINSLTYSPFGDSPLFRNPMSDPKKKEERLKPTNPAAQKALTTPTHYKLTPRPATRVRPKALQTTGTAKSHLFDGLDDDEPSLANGAFMPKKSIKKLVLKNLNNSNLFSPVNRDSENLASPSEYPENGERFSFLSKPVDENHQQDGDEDSLVSHFYTNPIAKPIPQTPESAGNKHSNSNSVDDTIVALNMRAALRNGLEGSSEETSFHDESLQDDREEIENNSYHMHPAGIILTKVGYYTIPSMDDLAKITNEKGECIVSDFTIGRKGYGSIYFEGDVNLTNLNLDDIVHIRRKEVVVYLDDNQKPPVGEGLNRKAEVTLDGVWPTDKTSRCLIKSPDRLADINYEGRLEAVSRKQGAQFKEYRPETGSWVFKVSHF
As to B3, in experiment [3], the binding entry is “binds”.
